The list does not hold the whole screen: it gathers tests that were run many times, whatever their T/C, doses with no T/C, and many T/C values between a quarter and a half above the control. Further doses and runs are listed elsewhere. T/C gives the treated animals as a percentage of the vehicle group. Some entries give survivors of the animals treated and no T/C: the source files T/C as zero there, which appears to mark a toxic dose or a test without result, not a measured value. Survivors were counted at the toxicity check, usually on the fifth day, unless a day is given; later deaths do not show. Schedules are NCI's codes, taken here to give the interval after Q, in days (D) or hours (H), and the number of doses after X. Where survival is the endpoint, the PubChem record calls one and a half times the control and up active, and a quarter to a half above the control has no call in these data; cut-offs in other NCI protocols can differ. Some schedules carry Z or #; the key to these is not given.
System: L1210 leukemia ip in BDF1 mice, survival T/C
Assay: NCI In Vivo Anticancer Drug Screen. Data for tumor model L1210 Leukemia (intraperitoneal) in B6D2F1 (BDF1) mice
Details: T/C endpoint: mean survival time, higher T/C = longer survival; for survivor count: schedule: Q01DX001 (ip), vehicle: carboxymethylcellulose (CMC)

SMILES | survivor count (dose: 60.0 mg/kg/injection) | survivor count (dose: 75.0 mg/kg/injection) | survivor count (dose: 150.0 mg/kg/injection) | survivor count (dose: 300.0 mg/kg/injection) | T/C (dose: 150.0 mg/kg/injection, schedule: Q01DX Z (ip), vehicle: saline)
COc1nn(C)c(=O)c2ncccc12 | 0 of 6 | 0 of 6 | 0 of 6 | 0 of 6 | 
Cc1c2cnccc2c(C)c2c1c1ccccc1n2C |  |  |  |  | 134 % of control

Source: PubChem BioAssay AID248 (DTP/NCI, 2004)
